Values quoted from earlier work, collected in patent US20230183169A1, “AROMATIC COMPOUND, PREPARATION METHOD THEREFOR AND USE THEREOF IN DRUG” (SICHUAN ACADEMY OF MEDICAL SCIENCES - SICHUAN PROVINCIAL …, priority 2020, published 2023).
Some of these results come from one statement about several compounds together. At least one compound was matched to its structure with a doubt left.

Details: cited from earlier work

Question: With CC[N+](CC)(CC)CC(=O)Nc1c(C)cccc1C.[Br-] [QX-314] as the compound, how does the “Time to take effect after injection” value (Anesthesiology, 2009, 111:122-6) read?
Answer: 20 to 30 min

Question: What about the “Duration of local anesthesia” value (background, literature) of the same compound?
Answer: 6 to 8 h
